From the supplement of paper PMC6078165

Tested on: MDAMB231
Assay: relative JC-1 red fluorescence (viability) vs pre-drug, coculture with fibroblast (fraction); higher = more viable cancer cells
Experimental: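 JC-1 labelled TNBC cells cocultured 1:1 (1,500 cells each) with CellTrace Violet stained primary or stromal fibroblasts in 384-well plates in FluoroBrite medium, treated with one of 42 anticancer drugs at 0.1, 1, 10 or 100 uM. JC-1 red fluorescence (mitochondrial integrity in cancer cells only) was read by plate reader every 8 h for 72 h. Values are normalised to each well's pre-drug value. The stock of one drug was tenfold lower, so its dose labels may be too high.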

CN(C)CCOc1ccc(/C(=C(/CCCl)c2ccccc2)c2ccccc2)cc1 [Toremifene]
relative JC-1 red fluorescence
Conditions	8 h	16 h	24 h	32 h	40 h	48 h	56 h	64 h	72 h
0.1 µM, coculture fibroblast: C12385	0.7685	0.73	0.669	0.62	0.564	0.531	0.486	0.485	0.459
0.1 µM, coculture fibroblast: H6013	0.891	0.819	0.767	0.757	0.718	0.693	0.679	0.652	0.614
0.1 µM, coculture fibroblast: H6019	0.758	0.7052	0.6764	0.62	0.572	0.549	0.5164	0.502	0.467
0.1 µM, coculture fibroblast: H6076	0.883	0.793	0.717	0.671	0.611	0.563	0.528	0.502	0.485
0.1 µM, coculture fibroblast: H6231	0.92664	0.828	0.76	0.72	0.677	0.639	0.594	0.572	0.554
0.1 µM, coculture fibroblast: HADF	0.882	0.814	0.765	0.741	0.699	0.657	0.639	0.621	0.579
0.1 µM, coculture fibroblast: HCFa	0.882	0.829	0.79	0.76	0.706	0.65	0.612	0.57	0.5212
0.1 µM, coculture fibroblast: HCPF	0.891	0.77	0.692	0.656	0.599	0.557	0.509	0.48	0.459
0.1 µM, coculture fibroblast: HHSteC	0.885	0.833	0.768	0.718	0.665	0.624	0.58566	0.5612	0.5289
0.1 µM, coculture fibroblast: HMF	0.854	0.771	0.755	0.717	0.678	0.639	0.61	0.598	0.587
0.1 µM, coculture fibroblast: HPFa	0.936	0.877	0.81	0.752	0.725	0.681	0.62	0.581	0.521
0.1 µM, coculture fibroblast: HUF	0.8681	0.7165	0.739	0.606	0.545	0.519	0.471	0.467	0.439
0.1 µM, coculture fibroblast: Hs5	0.929	0.8665	0.803	0.752	0.702	0.654	0.619	0.584	0.554
0.1 µM, coculture fibroblast: Hs27A	0.8578	0.775	0.735	0.7	0.643	0.567	0.567	0.541	0.496
0.1 µM, coculture fibroblast: Hs343T	0.861	0.719	0.652	0.6034	0.551	0.497	0.4469	0.43	0.414
0.1 µM, coculture fibroblast: WS1	0.777	0.71766	0.6785	0.617	0.561	0.528	0.478	0.468	0.441
1 µM, coculture fibroblast: C12385	0.792	0.792	0.638	0.659	0.603	0.56	0.511	0.501	0.473
1 µM, coculture fibroblast: H6013	0.9143	0.857	0.8161	0.8013	0.746	0.70945	0.7078	0.6802	0.6589
1 µM, coculture fibroblast: H6019	0.781	0.7279	0.673	0.6674	0.615	0.574	0.528	0.499	0.463
1 µM, coculture fibroblast: H6076	0.877	0.814	0.785	0.773	0.747	0.7149	0.6894	0.6851	0.677
1 µM, coculture fibroblast: H6231	0.938	0.855	0.786	0.752	0.705	0.672	0.63	0.617	0.59
1 µM, coculture fibroblast: HADF	0.895	0.854	0.802	0.77	0.741	0.686	0.671	0.656	0.605
1 µM, coculture fibroblast: HCFa	0.92313	0.8597	0.837	0.804	0.775	0.719	0.697	0.663	0.624
1 µM, coculture fibroblast: HCPF	0.899	0.808	0.75	0.742	0.681	0.648	0.606	0.568	0.557
1 µM, coculture fibroblast: HHSteC	0.951	0.931	0.925	0.904	0.874	0.844	0.813	0.802	0.762
1 µM, coculture fibroblast: HMF	0.951	0.8844	0.837	0.812	0.768	0.733	0.701	0.68	0.659
1 µM, coculture fibroblast: HPFa	0.9704	0.9302	0.878	0.835	0.803	0.761	0.713	0.686	0.635
1 µM, coculture fibroblast: HUF	0.899	0.822	0.808	0.7	0.628	0.593	0.54	0.526	0.492
1 µM, coculture fibroblast: Hs5	0.936	0.85	0.805	0.751	0.7	0.65	0.609	0.576	0.538
1 µM, coculture fibroblast: Hs27A	0.917	0.881	0.851	0.828	0.774	0.707	0.727	0.708	0.672
1 µM, coculture fibroblast: Hs343T	0.9228	0.857	0.793	0.762	0.71	0.667	0.613	0.595	0.576
1 µM, coculture fibroblast: WS1	0.794	0.77801	0.6431	0.645	0.598	0.57	0.527	0.506	0.475

Values are relative to the signal before dosing, not to a vehicle control; the signal also falls without drug.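 Fibroblast labels denote human fibroblasts, mainly primary ones from uterus (C12385, HUF), lung (H6013), bone (Hs27A), adrenal (HADF) and skin (WS1), plus mammary HMF and breast cancer-associated Hs343T. Cancer cells are basal-like or mesenchymal-like triple-negative breast cancer lines. A hit is a response shift exceeding 3x replicate standard deviation. The tissue of the other fibroblasts is not given here.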
